PubChem BioAssay AID1671190 (National Center for Advancing Translational Sciences (NCATS), 2021)
Hit rate of the full screen: of about 580,000 compounds, about 6,100 (1.1%) were called active. Inconclusive means that the source gave no clear call. Such entries were picked first, then a sample of the others. Calls come from the whole dose curve; as a rule, active = well fitted inhibition curve with a large enough effect; inconclusive = small, poorly fitted or top-dose-only effect, or another doubt; inactive = no such curve, though single readings can be large or run the other way. Potencies beside an inconclusive call are fits to weak or partial responses and may not hold up.

By UniProt entry, the sequences of proteins in these tests, tags left out. Where a name states a change or a piece, a line headed by the entry shows the natural chain unless it says otherwise.
UniProt P18054: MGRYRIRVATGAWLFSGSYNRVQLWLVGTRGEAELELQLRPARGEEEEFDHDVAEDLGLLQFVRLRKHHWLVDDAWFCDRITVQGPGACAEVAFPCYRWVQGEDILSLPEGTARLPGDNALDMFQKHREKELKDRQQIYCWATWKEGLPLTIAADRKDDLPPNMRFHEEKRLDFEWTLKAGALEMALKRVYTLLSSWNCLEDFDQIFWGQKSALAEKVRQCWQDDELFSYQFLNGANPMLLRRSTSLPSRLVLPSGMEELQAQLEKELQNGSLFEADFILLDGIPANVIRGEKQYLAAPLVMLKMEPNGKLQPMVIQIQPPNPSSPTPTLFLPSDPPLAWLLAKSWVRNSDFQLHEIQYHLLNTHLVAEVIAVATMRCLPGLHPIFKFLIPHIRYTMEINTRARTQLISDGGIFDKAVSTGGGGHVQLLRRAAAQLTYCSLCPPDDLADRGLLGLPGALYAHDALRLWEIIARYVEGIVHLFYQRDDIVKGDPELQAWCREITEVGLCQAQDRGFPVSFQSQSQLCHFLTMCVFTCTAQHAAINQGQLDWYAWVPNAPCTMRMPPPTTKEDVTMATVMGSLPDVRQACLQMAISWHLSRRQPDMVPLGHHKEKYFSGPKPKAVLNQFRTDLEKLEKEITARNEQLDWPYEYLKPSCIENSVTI

Target: Polyunsaturated fatty acid lipoxygenase ALOX12 (Homo sapiens) (UniProt P18054)
Experiment: Primary qHTS assay for inhibitors of human arachidonate 12S-lipoxygenase (ALOX12): Round 2
Conditions: purified 12hLO, xylenol orange hydroperoxide absorbance; activity change, negative = inhibition: at 108 µM (top of the series) unless noted
In short: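 Purified human 12hLO at 150 nM in 25 mM Hepes, 0.01% Triton X-100, pH 7.0, preincubated 15 min at room temperature with compound. Reaction started with 40 uM arachidonic acid, 30 min at room temperature. Hydroperoxide measured by Fe-xylenol orange, 573/405 nm absorbance ratio.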
% is set by controls: 0 for no effect and ±100 for the full control effect; potency is the fitted concentration of half-maximal effect.

| SMILES | Potency | activity change, negative = inhibition |
| --- | --- | --- |
| CN(C)c1ccc(C(=O)OC(C(=O)c2ccccc2)c2ccccc2)cc1 (stereo unspecified) | inconclusive: 100 µM [inhibitor, partial curve, poor fit] |  |
| COc1ccc(N(C)S(=O)(=O)c2cccc(C(=O)Nc3nc(C)cs3)c2)cc1 | inconclusive: 100 µM [inhibitor, single point] |  |
| COc1cccc(/C=C/c2ccncc2)c1OC | inconclusive: 35.5 µM [inhibitor, partial curve, poor fit] |  |
| Cc1oc(-c2ccccc2Cl)nc1CS(=O)CC(=O)N1CCN(c2cccc(C(F)(F)F)c2)CC1 (stereo unspecified) |  | inactive: -18% |
| COc1ccc(-c2ccc(COc3ccc4c(cnn4CCC(=O)O)c3)cc2)c(Cl)c1 | inconclusive: 39.8 µM [inhibitor, full curve] |  |
| O=C(/C=C/Nc1ccc([N+](=O)[O-])cc1Br)c1cccc2ccccc12 |  | inactive: -12.6% |
| COc1ccc(-c2nnc([C@H]3CCN(Cc4ccc(F)c(F)c4)C3)o2)cc1 |  | inactive: 59.5% [at 176 µM] |
| O=C(c1cn(-c2ccc(Cl)cc2)nn1)N1CCc2ccccc2C1 |  | inactive: 7.86% |
| O=C(CNS(=O)(=O)c1ccc(F)cc1)N1CCN(c2ccc(F)cc2)CC1 | inconclusive: 50.1 µM [inhibitor, partial curve, poor fit] |  |
| COc1ccc(-c2onc3ccc(Br)cc23)cc1OC | inconclusive: 12.6 µM [inhibitor, full curve, poor fit] |  |
| Cc1cc(OC(F)F)ccc1NC(=S)NC1CCCC1 | inconclusive: 39.8 µM [inhibitor, partial curve, poor fit] |  |
| O=C(O)COCC(=O)N[C@H]1CCN2C(=O)c3cc(-c4cccs4)ccc3NC(=O)[C@H]12 | inconclusive: 50.1 µM [inhibitor, partial curve] |  |
| Cc1nn(Cc2ccccc2)c(C)c1NC(=O)c1ccc([N+](=O)[O-])cc1[N+](=O)[O-] |  | inactive: -12.1% |
| O=C(c1cc2ccccc2oc1=O)N(Cc1ccccc1)Cc1ccc2c(c1)OCO2 | inconclusive: 5.62 µM [inhibitor, partial curve, poor fit] |  |
| Cc1cc(C)nc(N2CCCC(C(=O)Nc3ccc4c(c3)OCCO4)C2)n1 (stereo unspecified) | inconclusive: 50.1 µM [inhibitor, full curve, poor fit] |  |
| COCCN(CC(N)=O)S(=O)(=O)c1ccc(F)c(F)c1 |  | inactive: 26.9% |
| COc1ccc(OCC(=O)Nc2ccc3c(C)cc(=O)oc3c2)cc1 | inconclusive: 44.7 µM [inhibitor, partial curve, poor fit] |  |
| Cn1cc(CC(=O)N2CCCc3ncc(C(=O)N4CCC(c5ccccc5)CC4)cc32)c2ccccc21 | inconclusive: 100 µM [inhibitor, partial curve, poor fit] |  |
| Cc1ccccc1-c1nc(S(=O)(=O)c2ccc3c(c2)OCCO3)c(NCCN2CCOCC2)o1 | inconclusive: 39.8 µM [inhibitor, partial curve, poor fit] |  |
| Fc1ccccc1-c1ccc(CNc2ncn[nH]2)o1 |  | inactive: 6.25% |
| Cc1csc(=O)n1CC(=O)OCC(=O)Nc1ccc(Cl)cc1F | inconclusive: 56.2 µM [inhibitor, partial curve, poor fit] |  |
| Cc1cnc(C(=O)N2C[C@@H](Oc3cccnc3)C[C@H]2C(=O)N2CCCC2)cn1 |  | inactive: 35.5% |

| SMILES | Potency | activity change, negative = inhibition |
| --- | --- | --- |
| COC(=O)c1ccc(/C=C/C(=O)c2ccc(C)o2)cc1 | inconclusive: 35.5 µM [inhibitor, partial curve, poor fit] |  |
| Cc1ccc(C2=NN(C(=O)CCC(=O)O)C(c3ccc4nccnc4c3)C2)cc1 (stereo unspecified) |  | inactive: -22.6% |
| CN(CCOC(=O)c1ccccc1F)C(C)(C)C |  | inactive: 0.11% |
| CCCc1cnc2c(c1SCc1cccc(C)c1)c(=O)n(C)c(=O)n2C | inconclusive: 112 µM [inhibitor, partial curve, poor fit] |  |
| O=C(Nc1cc(C(F)(F)F)ccc1F)c1cccc(COc2ccc(Cl)cc2)c1 |  | inactive: 9.21% |
| CC(C[N+](C)(C)C)OC(=O)c1ccc2c(c1)OCO2 (stereo unspecified) | active: 25.1 µM |  |
| O=C(NC(=S)Nc1ccc(CN2CCCCC2)cc1)c1cccc(OCc2ccccc2)c1 | active: 31.6 µM |  |
| O=C(CCC[C@H]1NC[C@@H]2C[C@H]1CN(Cc1ccccc1)C2)Nc1ccc(N2CCOCC2)cc1 | inconclusive: 2.82 µM [inhibitor, full curve] |  |
| CCCC(=O)Nc1nc(-c2ccc(Cl)s2)cs1 | inconclusive: 70.8 µM [inhibitor, single point] |  |
| COC(=O)CSc1nc2c(cc1C#N)CCCC2 | inconclusive: 63.1 µM [inhibitor, partial curve, poor fit] |  |
| CC(=O)Nc1ccc(S(=O)(=O)Nc2cc3c(cc2SC2CCCCC2)n(C)c(=O)n3C)cc1 |  | inactive: -6.55% |
| CN1CCc2[nH]cnc2C12CCN(C(=O)CC1NC(=O)c3ccccc31)CC2 (stereo unspecified) | inconclusive: 35.5 µM [inhibitor, single point] |  |
| COc1ccc(CN2CCc3cc(OC)c(OC)cc3C2)cc1O | inconclusive: 2.51 µM [inhibitor, full curve, poor fit] |  |
| CC(=O)Nc1ccc(-c2csc(NC(=O)c3ccc(C)o3)n2)cc1 |  | inactive: -14.4% |
| O=C(/C=C/c1ccsc1)c1ccc(O)cc1 | active: 50.1 µM |  |
| CC(C)C(=O)N1CCCC(c2noc(COc3ccccc3F)n2)C1 (stereo unspecified) |  | inactive: 18.7% |
| O=C(CC1C(=O)OCCN1Cc1ccccc1)Nc1cccc(Cl)c1 (stereo unspecified) | inconclusive: 44.7 µM [inhibitor, partial curve, poor fit] |  |
| C=CS(=O)c1sc(Cl)c(N2CCOCC2)c1[N+](=O)[O-] (stereo unspecified) | inconclusive: 39.8 µM [inhibitor, partial curve, poor fit] |  |
| Cc1cc(-n2c(C)cc(-c3csc(N)n3)c2C)no1 | inconclusive: 28.2 µM [inhibitor, partial curve] |  |
| CCN(CC)C(=O)c1sc(NC(=O)c2ccoc2C)c(C(=O)OC)c1C | inconclusive: 31.6 µM [inhibitor, single point] |  |
| Cc1cc(C)c(C(=O)O)c(C)c1 | inconclusive: 100 µM [inhibitor, single point] |  |
| CC(C)c1noc(Cn2c(=O)c(C#N)cn(C3CC3)c2=O)n1 |  | inactive: 5.5% |

| SMILES | Potency | activity change, negative = inhibition |
| --- | --- | --- |
| COc1ccc(Cc2nnc(NC(=O)CS(=O)(=O)c3ccccc3)s2)cc1OC | inconclusive: 50.1 µM [inhibitor, partial curve, poor fit] |  |
| Cc1[nH]c2ccc(F)cc2c1C(=O)CCl | inconclusive: 35.5 µM [inhibitor, partial curve, poor fit] |  |
| O=C(CC1CCN(C(=O)c2cc(F)ccc2F)C1)NC1CC1 (stereo unspecified) |  | inactive: 41.6% |
| COc1cc(Nc2cc(C)n(-c3cc(OC)cc(OC)c3)c(=O)c2)cc(OC)c1 | inconclusive: 100 µM [inhibitor, partial curve, poor fit] |  |
| COc1ccc(Cl)cc1-c1n[nH]c(=S)n1Cc1ccccc1 |  | inactive: -15.6% |
| O=C(SCC(O)C(O)CS)c1cccs1 (stereo unspecified) | inconclusive: 44.7 µM [inhibitor, partial curve, poor fit] |  |
| CN(CC(=O)Nc1ccccc1SC(F)F)S(=O)(=O)c1ccc2ccccc2c1 | inconclusive: 56.2 µM [inhibitor, partial curve, poor fit] |  |
| COCC(=O)N[C@H]1CCN2C(=O)N(c3ccc(OC(F)(F)F)cc3)C(=O)[C@@H]2C1 |  | inactive: 12.4% [at 176 µM] |
| CCOC(=O)[C@H](CCc1ccccc1)N[C@H]1CCc2ccccc2N(CC(=O)O)C1=O | inconclusive: 5.44 µM [inhibitor, full curve, poor fit] |  |
| O=C1CC(SCc2nc3ccccc3[nH]2)C(=O)N1c1ccc(F)cc1 (stereo unspecified) |  | inactive: -17.5% |
| O=C(c1ccc(Cn2cc(Cl)c([N+](=O)[O-])n2)cc1)N1CCN(Cc2ccccc2)CC1 | inconclusive: 112 µM [inhibitor, single point] |  |
| CN1CCN(C(=O)CN2CCN(C(C(=O)O)c3cn(C)c4ccc(C(=O)O)cc34)CC2)CC1 (stereo unspecified) | inconclusive: 100 µM [inhibitor, partial curve, poor fit] |  |
| Cc1ccc(NC(=O)c2c(F)cccc2Cl)cc1S(=O)(=O)N1CCOCC1 | inconclusive: 141 µM [inhibitor, single point] |  |
| CC(C)(C)n1nnnc1C(c1cc2cc3c(cc2[nH]c1=O)OCO3)N1CCN(c2ccccc2)CC1 (stereo unspecified) |  | inactive: -20.5% |
| O=C(O)C1(c2ccccc2)CCN(S(=O)(=O)c2cccs2)CC1 | inconclusive: 100 µM [inhibitor, partial curve, poor fit] |  |
| CCc1cc2c(=O)c(-c3cnn(-c4ccccc4)c3)c(C(F)(F)F)oc2cc1O | inconclusive: 28.2 µM [inhibitor, partial curve, poor fit] |  |
| CC(=O)NCCC1CCCCN1C(=O)c1cc(COc2cc(C)ccc2C)on1 (stereo unspecified) |  | inactive: -9.57% |
| COc1cccc(CN(Cc2cccnc2)S(=O)(=O)c2ccc(-n3cnnn3)c(C)c2)c1OC | inconclusive: 11.2 µM [inhibitor, full curve, poor fit] |  |
| COc1cc2c(cc1OC)-c1c(c(C(=O)NCCN(C)C)nn1-c1ccc(C)cc1)C2 |  | inactive: -0.043% |
| COc1cccc(-c2ccc3c(c2)O[C@H](CN(C)C(=O)c2ccccc2F)[C@H](C)CN([C@H](C)CO)S3(=O)=O)c1 | inconclusive: 126 µM [inhibitor, single point] |  |
| CCCCc1cc(=O)oc2cc(C)cc(OCC(=O)N[C@@H](CSCc3ccccc3)C(=O)O)c12 | inconclusive: 35.5 µM [inhibitor, partial curve, poor fit] |  |
| Cc1ccc(NC(=O)CSc2n[nH]c(-c3ccccc3)n2)cc1C | inconclusive: 0.224 µM [inhibitor, full curve, poor fit] |  |

Grouped by structure: those above containing a tert-butyl group.

| SMILES | Potency | activity change, negative = inhibition |
| --- | --- | --- |
| CN(CCOC(=O)c1ccccc1F)C(C)(C)C |  | inactive: 0.11% |
| CC(C)(C)n1nnnc1C(c1cc2cc3c(cc2[nH]c1=O)OCO3)N1CCN(c2ccccc2)CC1 (stereo unspecified) |  | inactive: -20.5% |

Sorted by molecular weight (largest number first): some entries from above.

| SMILES | Potency | activity change, negative = inhibition |
| --- | --- | --- |
| CN1CCN(C(=O)CN2CCN(C(C(=O)O)c3cn(C)c4ccc(C(=O)O)cc34)CC2)CC1 (stereo unspecified) | inconclusive: 100 µM [inhibitor, partial curve, poor fit] |  |
| O=C(c1cn(-c2ccc(Cl)cc2)nn1)N1CCc2ccccc2C1 |  | inactive: 7.86% |
| COc1cccc(/C=C/c2ccncc2)c1OC | inconclusive: 35.5 µM [inhibitor, partial curve, poor fit] |  |
